# Substitutions are numbered along the chain they refer to. These are yes or no findings as the source states them, for the method shown. In cells and extracts the contact can be indirect. Some entries that bind do so weakly or less than the wild type. For some of these results: Tags and fused reporters may be left off the sequences shown.
# Amino acid sequences for entries named in this document (tags omitted). Residues count along the entry.
# UniProt O43353: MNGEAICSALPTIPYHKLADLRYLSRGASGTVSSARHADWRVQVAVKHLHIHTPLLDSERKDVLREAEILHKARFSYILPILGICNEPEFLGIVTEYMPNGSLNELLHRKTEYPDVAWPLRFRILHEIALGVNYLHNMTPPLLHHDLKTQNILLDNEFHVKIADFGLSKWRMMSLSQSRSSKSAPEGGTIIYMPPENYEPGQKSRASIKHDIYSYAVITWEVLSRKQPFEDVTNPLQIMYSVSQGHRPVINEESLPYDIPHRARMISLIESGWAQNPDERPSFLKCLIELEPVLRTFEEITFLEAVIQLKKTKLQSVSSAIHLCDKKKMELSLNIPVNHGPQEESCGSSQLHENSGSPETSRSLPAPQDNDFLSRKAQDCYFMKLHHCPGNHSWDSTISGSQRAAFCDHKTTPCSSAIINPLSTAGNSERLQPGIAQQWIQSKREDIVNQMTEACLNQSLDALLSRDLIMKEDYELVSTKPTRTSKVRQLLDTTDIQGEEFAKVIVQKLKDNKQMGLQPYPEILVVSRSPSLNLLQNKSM
# UniProt Q9HC29: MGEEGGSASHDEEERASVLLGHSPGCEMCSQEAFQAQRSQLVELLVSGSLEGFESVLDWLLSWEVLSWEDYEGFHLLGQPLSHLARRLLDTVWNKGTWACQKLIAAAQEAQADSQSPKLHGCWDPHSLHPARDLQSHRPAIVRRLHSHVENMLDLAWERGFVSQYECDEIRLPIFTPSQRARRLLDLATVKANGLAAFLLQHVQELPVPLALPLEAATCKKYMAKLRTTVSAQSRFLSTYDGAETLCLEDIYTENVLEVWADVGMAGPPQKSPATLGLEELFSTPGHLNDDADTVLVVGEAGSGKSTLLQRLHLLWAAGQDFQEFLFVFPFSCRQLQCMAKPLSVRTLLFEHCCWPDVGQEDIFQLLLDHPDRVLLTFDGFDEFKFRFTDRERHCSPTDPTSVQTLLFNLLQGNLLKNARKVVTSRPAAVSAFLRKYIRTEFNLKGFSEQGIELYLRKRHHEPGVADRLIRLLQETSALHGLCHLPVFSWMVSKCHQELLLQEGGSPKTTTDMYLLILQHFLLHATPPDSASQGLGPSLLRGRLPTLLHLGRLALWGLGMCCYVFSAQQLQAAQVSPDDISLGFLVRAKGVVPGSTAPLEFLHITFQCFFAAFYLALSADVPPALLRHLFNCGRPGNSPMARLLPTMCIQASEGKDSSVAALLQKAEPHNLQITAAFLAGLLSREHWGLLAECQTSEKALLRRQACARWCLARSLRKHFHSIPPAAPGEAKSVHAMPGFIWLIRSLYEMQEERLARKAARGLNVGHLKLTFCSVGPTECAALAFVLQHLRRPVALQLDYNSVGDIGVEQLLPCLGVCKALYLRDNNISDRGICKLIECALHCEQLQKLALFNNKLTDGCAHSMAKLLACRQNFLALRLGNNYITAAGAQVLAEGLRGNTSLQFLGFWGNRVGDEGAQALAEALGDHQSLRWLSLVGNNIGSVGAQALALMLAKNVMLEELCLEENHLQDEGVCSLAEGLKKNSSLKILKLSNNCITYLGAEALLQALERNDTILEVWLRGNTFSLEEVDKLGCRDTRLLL
# UniProt P25963: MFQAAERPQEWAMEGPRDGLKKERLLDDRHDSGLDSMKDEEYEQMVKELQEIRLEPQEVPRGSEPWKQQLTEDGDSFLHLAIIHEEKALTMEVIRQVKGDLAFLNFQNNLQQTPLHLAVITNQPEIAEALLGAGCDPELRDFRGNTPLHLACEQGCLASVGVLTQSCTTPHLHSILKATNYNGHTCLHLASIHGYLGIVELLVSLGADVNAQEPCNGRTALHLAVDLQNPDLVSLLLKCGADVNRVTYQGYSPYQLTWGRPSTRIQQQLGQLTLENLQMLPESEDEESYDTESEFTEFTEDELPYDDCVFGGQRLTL
# UniProt P51617: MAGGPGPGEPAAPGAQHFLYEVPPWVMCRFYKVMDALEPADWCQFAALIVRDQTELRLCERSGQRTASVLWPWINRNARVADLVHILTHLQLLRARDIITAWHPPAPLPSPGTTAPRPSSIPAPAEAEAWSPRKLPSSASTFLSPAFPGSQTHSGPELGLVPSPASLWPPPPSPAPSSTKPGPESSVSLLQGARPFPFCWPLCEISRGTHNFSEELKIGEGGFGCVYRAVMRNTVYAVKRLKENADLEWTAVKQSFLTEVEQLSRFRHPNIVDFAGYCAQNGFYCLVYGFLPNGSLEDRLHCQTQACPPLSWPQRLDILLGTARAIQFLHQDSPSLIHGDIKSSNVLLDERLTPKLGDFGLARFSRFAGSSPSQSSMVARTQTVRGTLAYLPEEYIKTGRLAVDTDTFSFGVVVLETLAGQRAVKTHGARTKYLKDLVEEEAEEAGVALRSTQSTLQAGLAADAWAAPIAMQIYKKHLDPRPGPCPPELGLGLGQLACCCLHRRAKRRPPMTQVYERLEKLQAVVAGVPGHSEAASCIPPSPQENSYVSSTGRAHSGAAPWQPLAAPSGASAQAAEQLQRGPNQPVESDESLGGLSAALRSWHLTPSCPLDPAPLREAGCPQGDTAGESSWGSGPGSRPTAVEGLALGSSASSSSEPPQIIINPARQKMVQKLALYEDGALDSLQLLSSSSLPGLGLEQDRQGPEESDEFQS
# UniProt P31040, residues 43-664: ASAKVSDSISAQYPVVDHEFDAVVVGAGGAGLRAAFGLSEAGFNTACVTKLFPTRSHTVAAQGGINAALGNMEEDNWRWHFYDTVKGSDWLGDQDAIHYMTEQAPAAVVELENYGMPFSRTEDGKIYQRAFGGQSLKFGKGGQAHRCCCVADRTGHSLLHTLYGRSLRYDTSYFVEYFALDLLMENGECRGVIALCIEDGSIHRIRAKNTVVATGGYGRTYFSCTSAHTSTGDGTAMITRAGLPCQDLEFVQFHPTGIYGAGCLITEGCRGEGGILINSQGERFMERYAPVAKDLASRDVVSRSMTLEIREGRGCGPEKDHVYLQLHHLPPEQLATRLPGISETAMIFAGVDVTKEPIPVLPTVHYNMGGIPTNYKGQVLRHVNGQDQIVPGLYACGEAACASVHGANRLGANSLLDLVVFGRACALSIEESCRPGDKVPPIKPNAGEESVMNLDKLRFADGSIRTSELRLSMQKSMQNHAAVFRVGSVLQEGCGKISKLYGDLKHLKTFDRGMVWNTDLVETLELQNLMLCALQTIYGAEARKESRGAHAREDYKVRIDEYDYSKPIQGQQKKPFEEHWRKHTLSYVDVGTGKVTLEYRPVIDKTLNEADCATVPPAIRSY
# Legend:
# [1] = molecular target: RIP2, endogenous in human monocyte-derived macrophages (human (endogenous in MDMs)) (UniProt O43353); assay: co-IP; lysates of human MDMs transfected with scrambled or LACC1 siRNA, treated with 100 μg/ml MDP for 15 min; RIP2 or NOD2 immunoprecipitated on protein A sepharose beads; recruited proteins by western blot
# [2] = molecular target: NOD2, endogenous in human monocyte-derived macrophages (human (endogenous in MDMs)) (UniProt Q9HC29); assay: as above
# [3] = molecular target: T1, LACC1 Ile254 variant, transfected into HEK293 cells (human) (UniProt Q8IV20); assay: co-IP; lysates of HEK293 cells transfected with LACC1 variants and NOD2, treated with 100 μg/ml MDP, 6 h; immunoprecipitated with anti-LACC1 antibody on protein A sepharose beads; SDHA by western blot
# T1 sequence: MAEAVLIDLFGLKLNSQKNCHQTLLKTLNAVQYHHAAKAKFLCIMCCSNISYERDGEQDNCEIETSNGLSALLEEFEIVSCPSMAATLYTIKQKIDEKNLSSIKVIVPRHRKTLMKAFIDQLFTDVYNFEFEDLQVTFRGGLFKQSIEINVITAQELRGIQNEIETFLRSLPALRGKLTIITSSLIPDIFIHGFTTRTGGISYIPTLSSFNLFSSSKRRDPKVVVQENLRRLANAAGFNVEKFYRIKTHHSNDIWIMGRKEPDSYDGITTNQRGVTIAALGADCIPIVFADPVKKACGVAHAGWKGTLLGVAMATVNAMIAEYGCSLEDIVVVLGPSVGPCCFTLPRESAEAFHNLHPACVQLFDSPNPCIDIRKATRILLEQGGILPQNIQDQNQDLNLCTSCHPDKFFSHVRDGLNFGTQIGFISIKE
# [4] = molecular target: T2, LACC1 His249,250Ala mutant, transfected into HEK293 cells (human) (UniProt Q8IV20); assay: as above
# T2 sequence: T1 sequence with H249A, H250A
# [5] = molecular target: T3, LACC1 Val254 disease-risk variant, transfected into HEK293 cells (human) (UniProt Q8IV20); assay: as above
# T3 sequence: T1 sequence with I254V
Substance,binding [1],binding [2],binding [3],binding [4],binding [5]
"phospho-IκBα, endogenous in human monocyte-derived macrophages (from UniProt P25963 1-317)",binds,binds,–,–,–
"IRAK1, endogenous in human monocyte-derived macrophages (from UniProt P51617 1-712)",binds,binds,–,–,–
"succinate dehydrogenase (SDH) subunit A, endogenous in HEK293 cells (from UniProt P31040 43-664)",–,–,binds,binds,binds
